Results published in article doi:10.1101/2021.01.04.425243.
Results are given in words; binding and its absence hold for the method and conditions named. Binding seen in cells or lysates may run through a third protein. Some results given as binding are weak or reduced against the parent protein; the word gives no strength.

Target: FGFR2b (human (endogenous in T47D)) (UniProt P21802)
Assay: co-IP

binding	Substance
binds	EGFR T693A mutant (from UniProt P00533 25-1210) (receptor)
binds	EGFR wild type (from UniProt P00533 25-1210) (receptor)
